Data source: PubChem BioAssay AID602196 (INSERM, 2012)
In all, the deposit lists about 23,000 reagents; shown is an unselected part. Of all reagents, 455 (2%) got an active call. 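Active includes both protection and sensitisation; some change values fall well beyond the stated -50 to +50 range.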 Not stated in the record: the amount of reagent.

- Purpose: 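Modifiers of cisplatin sensitivity in A549 cells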
- Cell system: human A549 lung cancer cells
- Knock-down reagent: siRNA pair against human genes
- Duration: 48 h transfection before cisplatin; time from cisplatin to read-out not stated
- Conditions: cisplatin at a dose killing half of control-siRNA cells; exact dose and duration not given
- Detection: 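Cisplatin cell death as a shift from the 50% death seen with control siRNA; siRNAs toxic or growth-blocking alone scored 0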
- Scale: two-siRNA summed score (-2 to +2): higher = both siRNAs protect from cisplatin killing; -2 means both sensitise; mean protection from cisplatin (shift in death) and protection from cisplatin (shift in death), siRNA C and protection from cisplatin (shift in death), siRNA D: higher = protection from cisplatin killing
- Hit rule: 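siRNAs harmful alone (LDH or WST-1) get 0; others get +1 for less and -1 for more cisplatin killing; genes are active when the two siRNAs give the same sign, summing to ±2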
- Calls: active = both siRNAs shift cisplatin killing the same way; inactive = no consistent shift, or siRNA harmful alone

gene symbol | two-siRNA summed score (-2 to +2) | mean protection from cisplatin (shift in death) (%) | protection from cisplatin (shift in death), siRNA C (%) | protection from cisplatin (shift in death), siRNA D (%) | call
DPP9 | 1 | 8 | -5.9 | 21.9 | inactive
GGCT | 0 | 10.4 | 11 | 9.9 | inactive
LOC389178 | 0 | 14 | 20.9 | 7.2 | inactive
HSPA1A | 0 | 11 | 17.6 | 4.3 | inactive
CDAN1 | 0 | -0.7 | -4.4 | 3 | inactive
LOC401440 | 0 | 3.8 | 7.6 | 0.1 | inactive
LIF | 0 | 5.8 | 7 | 4.5 | inactive
FLJ37183 | 1 | 10.2 | 13.9 | 6.6 | inactive
CYP27C1 | -1 | -4.5 | 5.1 | -14 | inactive
MSR1 | 0 | -10.9 | -14.5 | -7.3 | inactive
RUNX1 | 0 | -9.1 | -13.4 | -4.9 | inactive
B4GAT1 | 1 | 11.4 | 23.3 | -0.5 | inactive
KIAA0543 | 0 | 0.4 | -4.1 | 4.9 | inactive
HES5 | 0 | 1.1 | 8 | -5.8 | inactive
SPTBN5 | 0 | -6.9 | -18.1 | 4.3 | inactive
HPF1P1 | 0 | 15.1 | 0.2 | 30 | inactive
GPD1 | 0 | 7.4 | 12.2 | 2.6 | inactive
ANKS4B | 1 | 8.5 | 0.4 | 16.5 | inactive
ZNF511 | 0 | 9.3 | 3.9 | 14.6 | inactive
MEOX2 | 0 | 13.6 | 17.8 | 9.4 | inactive
RRP36 | 0 | -1.8 | -7.6 | 3.9 | inactive
SARAF | 0 | 5.3 | 5.8 | 4.8 | inactive
DKFZp761P0423 | 1 | 15.2 | 20.2 | 10.1 | inactive
OR52R1 | 0 | 12.4 | 12 | 12.9 | inactive
LOC387904 | 0 | -2.5 | -5.1 | 0 | inactive
GPX8 | 0 | 8.3 | -4.5 | 21 | inactive
LOC387977 | 0 | 5.2 | 1.1 | 9.3 | inactive
DENND1C | 0 | -8.7 | -12.9 | -4.5 | inactive
ATXN10 | 0 | 2.1 | -10.4 | 14.5 | inactive
SF3B3 | 0 | 13.3 | 17.1 | 9.5 | inactive
PEX11B | 0 | -5.1 | 2.3 | -12.6 | inactive
POM121L8P | 1 | 9.6 | 13.1 | 6.1 | inactive
GABPA | 0 | 17.4 | 5 | 29.7 | inactive
PCCB | 0 | 1.7 | 3 | 0.3 | inactive
LOC441180 | 0 | 7.2 | 2.8 | 11.5 | inactive
FBXL20 | -1 | -9 | -14.7 | -3.4 | inactive
VPS25P1 | 0 | 7.5 | -4.7 | 19.8 | inactive
OR14K1 | -1 | 3.1 | 22.4 | -16.3 | inactive
C2CD5 | 1 | 14.8 | 9.2 | 20.4 | inactive
LOC402709 | 0 | 5.8 | -5.2 | 16.8 | inactive
BRSK2 | 1 | 7.8 | 13 | 2.5 | inactive
ANKRD45 | 1 | 9.7 | 19.5 | -0.2 | inactive
ACOXL-AS1 | 1 | 7.4 | 15.6 | -0.9 | inactive
BCDIN3D | 0 | -7 | 2.1 | -16.2 | inactive
LOC401264 | 0 | 6.8 | 9.3 | 4.2 | inactive
ZNF460 | 0 | 13.5 | 13.9 | 13.2 | inactive
ZDHHC3 | 0 | -27.8 | -1.6 | -54 | inactive
KCNG3 | 1 | 11.3 | 28.6 | -5.9 | inactive
RIMS3 | 0 | -0.5 | -5.3 | 4.4 | inactive
POTEG | 0 | 5.8 | 12 | -0.4 | inactive
LOC392215 | 0 | 17.2 | 27.3 | 7.2 | inactive
DDX24 | 0 | 2.4 | 2 | 2.8 | inactive
LOC401169 | 0 | 4.5 | 6.9 | 2.1 | inactive
KIF2A | 0 | 3.7 | 12.5 | -5 | inactive
PLCB4 | 0 | 9.3 | -1.1 | 19.8 | inactive
CARHSP1 | 0 | -8.5 | -7.7 | -9.3 | inactive
LRRC8D | 1 | 17.6 | 9.6 | 25.5 | inactive
PI3 | 0 | -3.2 | 5.4 | -11.7 | inactive
OR4K2 | 0 | 4 | 7.8 | 0.2 | inactive
ZBTB4 | 0 | -1.6 | -1.3 | -1.9 | inactive
IFT52 | 0 | 7.3 | 9.4 | 5.2 | inactive
CNEP1R1 | 1 | 17.2 | 15.3 | 19.1 | inactive
IFITM3P8 | 0 | 7.3 | 1.7 | 13 | inactive
TMEM117 | 0 | 2.7 | 3.7 | 1.7 | inactive
SLC26A3 | 0 | -5.5 | -7.3 | -3.7 | inactive
NXPH4 | 0 | 8.7 | 9.2 | 8.2 | inactive
LOC441473 | 1 | 12.4 | 22.6 | 2.2 | inactive
EIF4EBP2 | 0 | 3 | 0.5 | 5.5 | inactive
SEMA4G | 0 | 0.5 | 10.5 | -9.5 | inactive
CCL7 | 1 | 14.3 | 22.4 | 6.2 | inactive
PPP1R1A | 0 | 18.7 | -0.6 | 38 | inactive
UBA7 | 0 | 10.6 | 8.7 | 12.6 | inactive
GFPT1 | 0 | 11.6 | 4.5 | 18.7 | inactive

Laid out differently: entries from further up
gene symbol,two-siRNA summed score (-2 to +2),mean protection from cisplatin (shift in death) (%),"protection from cisplatin (shift in death), siRNA C (%)","protection from cisplatin (shift in death), siRNA D (%)",call
ACOXL-AS1,1,7.4,15.6,-0.9,inactive
BCDIN3D,0,-7,2.1,-16.2,inactive
LOC401264,0,6.8,9.3,4.2,inactive
ZNF460,0,13.5,13.9,13.2,inactive
ZDHHC3,0,-27.8,-1.6,-54,inactive
KCNG3,1,11.3,28.6,-5.9,inactive
RIMS3,0,-0.5,-5.3,4.4,inactive
POTEG,0,5.8,12,-0.4,inactive
LOC392215,0,17.2,27.3,7.2,inactive
DDX24,0,2.4,2,2.8,inactive
LOC401169,0,4.5,6.9,2.1,inactive
KIF2A,0,3.7,12.5,-5,inactive
